Measurements reported in PubChem BioAssay AID504808 (Drosophila RNAi Screening Center, 2011)
Aim: 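Fly genes required to hold E2F transcription in check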 (primary screen). System: Drosophila S2 cells. Reagents: long dsRNA against Drosophila genes. Measured: 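Firefly luciferase driven by E2F sites, normalised to Renilla luciferase on the same minimal promoter, measured by plate reader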. Direction: E2F firefly: higher = more E2F reporter activity; Renilla normaliser: higher = more normaliser reporter signal. Call rule: 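Called active if the normalised E2F reporter went up by over 50%; the cutoff is arbitrary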.
The deposit covers about 21,000 reagents; shown is an unselected part of those that have a named target and a result. Over the whole deposit, 18 (0.084%) were called active. 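Raw counts without plate normalisation, one of two replicates; the ratio scores behind the calls were not deposited.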 Not given: the amount of reagent, the time to read-out.

osa [DRSC17022]: E2F firefly, rep 1 = 66247; Renilla normaliser, rep 1 = 4060; outcome = inactive
plx (pollux) [DRSC12260]: E2F firefly, rep 1 = 1.28e5; Renilla normaliser, rep 1 = 6185; outcome = inactive
plx (pollux) [DRSC12385]: E2F firefly, rep 1 = 1.43e5; Renilla normaliser, rep 1 = 7014; outcome = inactive
Syx5 (Syntaxin 5) [DRSC03432]: E2F firefly, rep 1 = 75304; Renilla normaliser, rep 1 = 3168; outcome = inactive
Trim9 (Tripartite motif containing 9) [DRSC02242]: E2F firefly, rep 1 = 1.60e5; Renilla normaliser, rep 1 = 5560; outcome = inactive
Nadk1a (NAD kinase 1a) [DRSC05431]: E2F firefly, rep 1 = 1.36e5; Renilla normaliser, rep 1 = 5223; outcome = inactive
Nadk1a (NAD kinase 1a) [DRSC06963]: E2F firefly, rep 1 = 2889; Renilla normaliser, rep 1 = 210; outcome = inactive
CG14074 [DRSC10079]: E2F firefly, rep 1 = 1.53e5; Renilla normaliser, rep 1 = 7966; outcome = inactive
CG32809 [DRSC18507]: E2F firefly, rep 1 = 78866; Renilla normaliser, rep 1 = 1012; outcome = inactive
CG32809 [DRSC18562]: E2F firefly, rep 1 = 1.28e5; Renilla normaliser, rep 1 = 6697; outcome = inactive
CG32809 [DRSC18592]: E2F firefly, rep 1 = 1923; Renilla normaliser, rep 1 = 1068; outcome = inactive
HnRNP-K (Heterogeneous nuclear ribonucleoprotein K) [DRSC07585]: E2F firefly, rep 1 = 75187; Renilla normaliser, rep 1 = 3197; outcome = inactive
CG31886 [DRSC03248]: E2F firefly, rep 1 = 85832; Renilla normaliser, rep 1 = 4488; outcome = inactive
osk (oskar) [DRSC17023]: E2F firefly, rep 1 = 62017; Renilla normaliser, rep 1 = 3464; outcome = inactive
CG7741 [DRSC07035]: E2F firefly, rep 1 = 94368; Renilla normaliser, rep 1 = 4153; outcome = inactive
Tango8 (Transport and Golgi organization 8) [DRSC06474]: E2F firefly, rep 1 = 1.36e5; Renilla normaliser, rep 1 = 4846; outcome = inactive
pros (prospero) [DRSC12856]: E2F firefly, rep 1 = 87963; Renilla normaliser, rep 1 = 2731; outcome = inactive
pros (prospero) [DRSC17032]: E2F firefly, rep 1 = 83526; Renilla normaliser, rep 1 = 3700; outcome = inactive
CG16894 [DRSC06634]: E2F firefly, rep 1 = 1.54e5; Renilla normaliser, rep 1 = 5522; outcome = inactive
